The record followed here is US20200255529A1.

This experiment addresses cynomolgus TREM1 on cells (cynomolgus). As to the kind of experiment: flow cytometry, directly conjugated antibody on red-cell-lysed cynomolgus blood, gated on monocytes, Fc receptors blocked; TREM1 taken as the target of PI-4170 (not given). In general terms: A flow cytometer gives signals particle by particle.

Results are given in words; binding and its absence hold for the method and conditions named. Some binding calls cover weakened binding; strength is not graded here.

B1: PI-4170 (antibody, human IgG1, kappa, V domains shown)
VH: EVQLVESGGGLVQPGGSLKLSCAASGFTFSTYAMHWVRQASGKGLEWVGRIRTKSSNYATYYAASVKGRFTISRDDSKNTAYLQMNSLKTEDTAVYYCTRDMGIRRQFAYWGQGTLVTVSS
VL: DIVLTQSPDSLAVSLGERATINCRASESVDTFDYSFLHWYQQKPGQPPKLLIYRASNLESGVPDRFSGSGSGTDFTLTISSLQAEDVAVYYCQQSNEDPYTFGQGTKLEIKR
As for B1, the binding entry is “binds”.
